Measured values taken from paper PMC7140707.
No constants are given. Whether binding was seen depends on the method and setting. In cells and extracts the contact can be indirect. These calls come from enrichment with a bait or labelling near it, and not all partners need be listed. Where a sequence is shown, tags or fusion partners need not be part of it.

T1: His6-Gis1 (yeast (S. cerevisiae)) (UniProt Q03833)
T1 sequence: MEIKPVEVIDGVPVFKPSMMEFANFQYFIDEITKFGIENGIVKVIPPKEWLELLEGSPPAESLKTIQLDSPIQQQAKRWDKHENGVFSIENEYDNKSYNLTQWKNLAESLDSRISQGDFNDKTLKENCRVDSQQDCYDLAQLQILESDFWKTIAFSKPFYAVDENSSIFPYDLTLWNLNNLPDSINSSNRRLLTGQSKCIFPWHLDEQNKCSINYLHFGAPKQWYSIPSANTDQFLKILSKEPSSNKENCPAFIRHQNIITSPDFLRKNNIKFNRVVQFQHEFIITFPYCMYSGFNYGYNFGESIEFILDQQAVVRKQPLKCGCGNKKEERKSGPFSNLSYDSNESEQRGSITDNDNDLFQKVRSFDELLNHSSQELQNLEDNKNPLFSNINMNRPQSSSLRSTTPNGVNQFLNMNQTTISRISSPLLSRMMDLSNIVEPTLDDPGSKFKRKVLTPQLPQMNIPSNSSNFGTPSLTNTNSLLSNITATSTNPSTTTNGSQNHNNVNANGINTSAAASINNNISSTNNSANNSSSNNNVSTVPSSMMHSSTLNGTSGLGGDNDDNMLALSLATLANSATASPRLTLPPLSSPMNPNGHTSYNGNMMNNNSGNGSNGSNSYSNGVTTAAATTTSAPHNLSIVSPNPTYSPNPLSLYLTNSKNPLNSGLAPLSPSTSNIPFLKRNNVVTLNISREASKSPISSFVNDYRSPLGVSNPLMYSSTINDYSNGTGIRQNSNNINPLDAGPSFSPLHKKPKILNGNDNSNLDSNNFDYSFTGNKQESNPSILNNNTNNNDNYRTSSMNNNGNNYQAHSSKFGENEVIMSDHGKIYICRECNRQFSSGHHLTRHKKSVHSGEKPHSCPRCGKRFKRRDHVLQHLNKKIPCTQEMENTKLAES

B1: SNF1 (protein, UniProt P06782 1-633)
chain: MSSNNNTNTAPANANSSHHHHHHHHHHHHHGHGGSNSTLNNPKSSLADGAHIGNYQIVKTLGEGSFGKVKLAYHTTTGQKVALKIINKKVLAKSDMQGRIEREISYLRLLRHPHIIKLYDVIKSKDEIIMVIEYAGNELFDYIVQRDKMSEQEARRFFQQIISAVEYCHRHKIVHRDLKPENLLLDEHLNVKIADFGLSNIMTDGNFLKTSCGSPNYAAPEVISGKLYAGPEVDVWSCGVILYVMLCRRLPFDDESIPVLFKNISNGVYTLPKFLSPGAAGLIKRMLIVNPLNRISIHEIMQDDWFKVDLPEYLLPPDLKPHPEEENENNDSKKDGSSPDNDEIDDNLVNILSSTMGYEKDEIYESLESSEDTPAFNEIRDAYMLIKENKSLIKDMKANKSVSDELDTFLSQSPPTFQQQSKSHQKSQVDHETAKQHARRMASAITQQRTYHQSPFMDQYKEEDSTVSILPTSLPQIHRANMLAQGSPAASKISPLVTKKSKTRWHFGIRSRSYPLDVMGEIYIALKNLGAEWAKPSEEDLWTIKLRWKYDIGNKTNTNEKIPDLMKMVIQLFQIETNNYLVDFKFDGWESSYGDDTTVSNISEDEMSTFSAYPFLHLTTKLIMELAVNSQSN
B2: SOF1 (protein, UniProt P33750 1-489)
chain: MKIKTIKRSADDYVPVKSTQESQMPRNLNPELHPFERAREYTKALNATKLERMFAKPFVGQLGYGHRDGVYAIAKNYGSLNKLATGSADGVIKYWNMSTREEFVSFKAHYGLVTGLCVTQPRFHDKKPDLKSQNFMLSCSDDKTVKLWSINVDDYSNKNSSDNDSVTNEEGLIRTFDGESAFQGIDSHRENSTFATGGAKIHLWDVNRLKPVSDLSWGADNITSLKFNQNETDILASTGSDNSIVLYDLRTNSPTQKIVQTMRTNAICWNPMEAFNFVTANEDHNAYYYDMRNLSRSLNVFKDHVSAVMDVDFSPTGDEIVTGSYDKSIRIYKTNHGHSREIYHTKRMQHVFQVKYSMDSKYIISGSDDGNVRLWRSKAWERSNVKTTREKNKLEYDEKLKERFRHMPEIKRISRHRHVPQVIKKAQEIKNIELSSIKRREANERRTRKDMPYISERKKQIVGTVHKYEDSGRDRKRRKEDDKRDTQEK
B3: UGP1 (protein, UniProt P32861 1-499)
chain: MSTKKHTKTHSTYAFESNTNSVAASQMRNALNKLADSSKLDDAARAKFENELDSFFTLFRRYLVEKSSRTTLEWDKIKSPNPDEVVKYEIISQQPENVSNLSKLAVLKLNGGLGTSMGCVGPKSVIEVREGNTFLDLSVRQIEYLNRQYDSDVPLLLMNSFNTDKDTEHLIKKYSANRIRIRSFNQSRFPRVYKDSLLPVPTEYDSPLDAWYPPGHGDLFESLHVSGELDALIAQGREILFVSNGDNLGATVDLKILNHMIETGAEYIMELTDKTRADVKGGTLISYDGQVRLLEVAQVPKEHIDEFKNIRKFTNFNTNNLWINLKAVKRLIESSNLEMEIIPNQKTITRDGHEINVLQLETACGAAIRHFDGAHGVVVPRSRFLPVKTCSDLLLVKSDLFRLEHGSLKLDPSRFGPNPLIKLGSHFKKVSGFNARIPHIPKIVELDHLTITGNVFLGKDVTLRGTVIIVCSDGHKIDIPNGSILENVVVTGNLQILEH
B4: ESS1 (protein, UniProt P22696 1-170)
chain: MPSDVASRTGLPTPWTVRYSKSKKREYFFNPETKHSQWEEPEGTNKDQLHKHLRDHPVRVRCLHILIKHKDSRRPASHRSENITISKQDATDELKTLITRLDDDSKTNSFEALAKERSDCSSYKRGGDLGWFGRGEMQPSFEDAAFQLKVGEVSDIVESGSGVHVIKRVG
B5: SRO9 (protein, UniProt P25567 1-434)
chain: MSAETAAANTATAPVPEVQEQESSKSKQVNLTPAPLPTSSPWKLAPTEIPVSTISIEDLDATRKKKNRTPTPKSSTATKWVPIKASITVSGTKRSGSKNGASNGNSNKSKNNKTAASSTSSSNANRKKKHHQHNAKKQQQMKKDGFESAVGEEDSKDATSQENGQSTQQQQPPHHRNHHHSHHHNSNGPQRRKFHNSNNAGMPQNQGFPPQFKPYQGRNARNNNNNRSKYHNHFHHNQQHPQQPMVKLQQQFYPVQPVLMAINNIARQIEYYFSEENLTVDNYLRSKLSKDGFAPLSLISKFYRVVNMSFGGDTNLILAALREIVANEAATVNVAEGTLAAKEGDNVTGEAKEPSPLDKYFVRSKSWSNWLPETFETEINIEKELVGDALDQFMISLPPVPQQEEESSTELASQEQETKEDSAPVAAGESESSL

Target: T1, His6-Gis1 (yeast (S. cerevisiae))
Assay: affinity purification with mass spectrometry; His6-Gis1 pre-bound to a Ni Sepharose 6 Fast Flow column; crude yeast extract (Δgis1 cells grown in air or under hypoxia, Δgis1Δhem1 cells at intermediate or high ALA) loaded, 4 °C, 2 h; eluted complexes separated by SDS-PAGE, bands excised, MS; only the target purified

binding | Binder
binds | B1
binds | B2
binds | B3
binds | B4
binds | B5
